Reference: patent US9920295B2, “Bioreactor for isolation of rare cells and methods of use” (The Trustees of the University of Pennsylvania, priority 2012, dated 2018)

What was measured:
Assay type in all cases: cell-based, human
[1] = tested on: BM CD34+-derived cells (CD41+ MK); test: Ploidy analysis of CD34+-derived cells treated with contractility inhibitors (flow cytometry)
Procedure: Fresh purified bone marrow (BM)-derived humanCD34^+ cells were obtained from either the Penn Xenograft Core Facility or AllCells. Cells from at least 10 different donors were used in this study. Purity of the samples (>98%) was confirmed by flow cytometry with monoclonal antibody against human CD34 conjugated to phycoerythrin (PE). All experiments were performed in hematopoietic stem cell (HSC) expansion media (StemLine-II; Sigma) supplemented with 1× antibiotics, and the following human recombinant cytokines SCF (100 ng/mL) and Tpo (100 ng/mL). In some occasions, the media was also supplemented by G-CSF (100 ng/mL). All cytokines were purchased from R&D Systems. After cells were cultured for 4 days, they were treated with different doses of cellular contractility inhibitors, including (±)-blebbistatin (EMDBiosciences), reversine, ML-7, and Y-27632 (Sigma) for indicated durations of up to 3 days. Unfortunately, longer exposure to drug proves toxic even to polyploidy cells under the present culture conditions. Cells were then resuspended in PBS/2% FBS medium and subjected to ploidy analysis: cells were stained with CD41-FITC (BD Biosciences) at room temperature for 30 min, followed by Hoechst 33342 at 37° C. for 30 min. Then cells were stained with Annexin-V-PE (BD Biosciences) in the Annexin-V staining medium, followed by addition of 7-AAD. Stained cells were subjected to flow cytometric analysis (LSR-II; BD Biosciences): only viable cells (7-AAD^− and Hoechst 33342^+) were analyzed for ploidy. Cells with the DNA content of 8 N or higher were considered polyploid. To quantify absolute number of polyploid cells, viable cell number was counted before flow cytometry by Trypan blue exclusion, and this number was multiplied by percentages of each DNA compartment and subpopulations. Each multiplied number was then normalized by initial cell input number before drug treatment in culture.

[2] = tested on: CD34+-derived cells (CFU-GM, BFU-E); test: Colony forming assay
Procedure: 1000-3000 CD34^+-derived cells were seeded into methylcellulose containing media (MethoCult H4434, StemCell Technologies) supplemented with SCF, GM-CSF, IL-3, Epo. They were cultured for 14 days and colonies were scored at 10× magnification based on the published morphological criteria by StemCell Technoloigies. Colony forming content was normalized per 10,000 cells seeded.

[3] = tested on: CD34+-derived cells (HSC, MPP, CPP); test: AHR antagonist dose-response on HSC/P subpopulation number
Procedure: Freshly purified bone marrow-derived human CD34^+ cells were obtained from either the Penn Xenograft Core Facility or AllCells (Emeryville, Calif.). Cells from at least 20 different donors were used in this study. Purity of the samples (>98%) was confirmed by flow cytometry with monoclonal antibody against human CD34. All experiments were performed in HSC expansion media (StemLine, Sigma) supplemented with 1× antibiotics, 20% BIT 9500 Serum Substitute (StemCell Technologies), 2 mM […] (Gibco) and the following human recombinant cytokines: SCF (100 ng/ml) and Tpo (100 ng/ml). In some occasions, the media was also supplemented by G-CSF (100 ng/ml), epidermal growth factor (EGF, 100 ng/ml), transforming growth factor beta 1 (TGF-beta1, 100 ng/ml), erythropoietin (EPO, 1 U/ml) and interleukin-3 (IL-3, 10 ng/ml). All cytokines were purchased from R&D Systems. After cells were cultured for 4 days, they were treated with different doses of cellular contractility inhibitors, including (±)-Blebbistatin (Bleb) (EMD Biosciences) and/or CH-223191 (Sigma) for indicated durations of up to 3 days. Cells were cultured at 37° C. in 5% CO2.
Surface marker analysis for HSC/Ps was done on either a LSR II flow cytometer or FACSCalibur (Becton Dickinson). […] Cells isolated from the bone marrow stained for 1 hr with APC anti-mouse CD47 (miap301, AbD Serotec), FITC anti-human CD47 (BD Biosciences), and PE anti-human CD11b, PE anti-human CD19 (both from BD Biosciences), or PE anti-human Glycophorin A (Invitrogen). Plts and RBCs were analyzed by staining with PE anti-mouse CD41 (eBioscience) and FITC anti-human CD41 (eBioscience) for 20 min, followed by analysis on FACSCalibur on log forward and side scatter scales.

Structure (SMILES): c1nc2nc(Nc3ccc(N4CCOCC4)cc3)nc(NC3CCCCC3)c2[nH]1 [reversine]
- Hill slope, MK polyploid cell number curve [1]: 10.8
- Hill slope, MK cell number in 2 N [1]: −2.0
- Hill slope, MK cell number in 4 N [1]: −1.6

Structure (SMILES): C[C@@H](N)[C@H]1CC[C@H](C(=O)Nc2ccncc2)CC1 [Y-27632]
- Hill slope, MK polyploid cell number curve [1]: 1.0

Structure (SMILES): Cc1ccc2c(c1)C(=O)C1(O)CCN(c3ccccc3)C1=N2 (racemic) [blebbistatin, (±)-blebbistatin]
- Hill coefficient, BFU-E [2]: −20
- Hill coefficient, CFU-GM [2]: −6
- Hillslope, BFU-E relative to CFU-GM ([2]; absence of Epo): 5.0
- Hill coefficient, ratio polyploid MKs to 2n+4n MKs [1]: 7.0
- Hill slope, MK polyploid cell number curve [1]: 7.0
- Hill exponent n ([1]; MK responses in drug concentration): ~7
- Hill slope, CD41+ MK and non-MK polyploid cell number ([1]; treatment for 3 d): 7.0

Structure (SMILES): Cc1ccccc1N=Nc1ccc(NC(=O)c2ccnn2C)c(C)c1 [CH-223191]
- Hill coefficient, CPP number ([3]; untreated and Bleb, for both): 2.0
- Hill coefficient, MPP number ([3]; untreated and Bleb, for both): 1.0
- Hill coefficient, HSC number ([3]; with 20 μM Bleb): 1.0
- Hill coefficient, HSC number ([3]; without Bleb): 1.5

Structure (SMILES): O=S(=O)(c1cccc2c(I)cccc12)N1CCCNCC1 [ML7, ML-7]
- Hill slope, MK polyploid cell number curve [1]: −4.74
- Hill slope, MK cell number in 2 N [1]: −0.93
- Hill slope, MK cell number in 4 N [1]: −0.8
